Results deposited as PubChem BioAssay AID504793 (Drosophila RNAi Screening Center, 2011)
The screen tested about 23,000 reagents; shown is a random part of those with a known target gene and a result. In the full data, 62 (0.27%) were called active. 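Calls come from follow-up tests whose scores are not deposited, so confirmed genes may have low counts here; counts are not normalised per plate.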 Raw values vary from plate to plate and are shown uncorrected. Reagents against one gene are numbered here. A plus sign joins genes that one reagent is predicted to hit.

Purpose: 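Genes required for cells to halt at G2/M after double-strand DNA breaks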 (primary screen)
Cells: Drosophila S2R+ cells
Knock-down reagent: long dsRNA against Drosophila genes, about 0.25 µg dsRNA per well
Time to read-out: 4 days of dsRNA, then 4 hours of drug before read-out
Challenge: doxorubicin 0.5 µM for 4 hours to cause double-strand breaks, in cells also given a low, harmless dose of dsRNA against nbs to sensitise the assay
Detection: 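Mitotic index as the number of phospho-histone H3-positive cells in each well following doxorubicin, given as raw counts without normalisation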
Reading the numbers: mitotic cells: higher = more cells in mitosis, weaker G2 arrest
Hit rule: 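Genes are called active only when high mitotic counts were reproduced with independent dsRNAs and mitosis was checked for delay without damage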
Calls: active = confirmed in follow-up tests; inactive = not confirmed

target,reagent no.,"mitotic cells, replicate 1",Outcome
CG13314 (GeneID 39030),1,4,inactive
cmb (GeneID 39513),1,8,inactive
cmb (GeneID 39513),2,4,inactive
CG9926 (GeneID 41700),1,2,inactive
CG9926 (GeneID 41700),2,5,inactive
CG31897 (GeneID 319011),1,11,inactive
stw (GeneID 35494),1,4,inactive
stw (GeneID 35494),2,9,inactive
stw (GeneID 35494),3,5,inactive
stw (GeneID 35494),4,2,inactive
emei (GeneID 39250),1,4,inactive
emei (GeneID 39250),2,16,inactive
CG13059 (GeneID 39803),1,10,inactive
CG4984 + CG4975,1,4,inactive
CG4984 + CG4975,2,5,inactive
ATbp (GeneID 5740592),1,11,inactive
ATbp (GeneID 5740592),2,8,inactive
B-H1 (GeneID 32724),1,6,inactive
B-H1 (GeneID 32724),2,10,inactive
corto (GeneID 40616),1,12,inactive
corto (GeneID 40616),2,1,inactive
Pex16 (GeneID 40293),1,4,inactive
CG14568 (GeneID 40418),1,1,inactive
mge (GeneID 38459),1,7,inactive
ArfGAP1 (GeneID 39417),1,8,inactive
CG17224 (GeneID 33510),1,1,inactive
PCB (GeneID 36020),1,2,inactive
CG13551 (GeneID 50133),1,8,inactive
iPLA2-VIA (GeneID 39160),1,6,inactive
smg (GeneID 39034),1,3,inactive
smg (GeneID 39034),2,9,inactive
Vm26Ab (GeneID 33827),1,11,inactive
Vm26Ab (GeneID 33827),2,6,inactive
rsh (GeneID 32253),1,4,inactive
CG6959 (GeneID 41434),1,10,inactive
Ir31a (GeneID 318912),1,16,inactive
Chpf (GeneID 32259),1,10,inactive
Chpf (GeneID 32259),2,2,inactive
Nepl9 (GeneID 35020),1,6,inactive
Dnai2 (GeneID 39318),1,4,inactive
CG5986 (GeneID 192506),1,6,inactive
CG5986 (GeneID 192506),2,4,inactive
CG15534 (GeneID 43613),1,11,inactive
CG15534 (GeneID 43613),2,4,inactive
bnl (GeneID 42356),1,5,inactive
bnl (GeneID 42356),2,8,inactive
bnl (GeneID 42356),3,6,inactive
CG10431 (GeneID 35157),1,3,inactive
Obp83b (GeneID 40738),1,3,inactive
Obp83b (GeneID 40738),2,5,inactive
aralar1 (GeneID 43616),1,4,inactive
aralar1 (GeneID 43616),2,4,inactive
aralar1 (GeneID 43616),3,7,inactive
PIG-N (GeneID 36049),1,6,inactive
CG9445 (GeneID 50147),1,4,inactive
Nep7 (GeneID 43356),1,11,inactive
Nep7 (GeneID 43356),2,13,inactive
CG16815 (GeneID 34725),1,11,inactive
CG16815 (GeneID 34725),2,2,inactive
Gapdh2 (GeneID 32545),1,15,inactive
Gapdh2 (GeneID 32545),2,11,inactive
CG7920 (GeneID 43562),1,7,inactive
CG7920 (GeneID 43562),2,7,inactive
GluClalpha (GeneID 42350),1,11,inactive
Erasp (GeneID 246448),1,2,inactive
CG13526 (GeneID 37613),1,2,inactive
zen2 (GeneID 40827),1,4,inactive
zen2 (GeneID 40827),2,4,inactive
Hel89B (GeneID 41943),1,6,inactive
Hel89B (GeneID 41943),2,15,inactive
Amnionless (GeneID 33199),1,,inactive
Cth (GeneID 37143),1,5,inactive
CG32182 (GeneID 317898),1,14,inactive
CG32182 (GeneID 317898),2,9,inactive
CG3328 (GeneID 37871),1,8,inactive
CG3328 (GeneID 37871),2,3,inactive
CG11858 (GeneID 43044),1,11,inactive
CG11858 (GeneID 43044),2,5,inactive
Sgsh (GeneID 42266),1,4,inactive
DppIII (GeneID 40996),1,6,inactive
DppIII (GeneID 40996),2,4,inactive
CG33203 (GeneID 43414),1,17,inactive
CG33203 (GeneID 43414),2,4,inactive
CG33203 (GeneID 43414),3,2,inactive
CG14395 (GeneID 41560),1,5,inactive
Arp3 (GeneID 38898),1,8,inactive
Arp3 (GeneID 38898),2,6,inactive
AANATL5 (GeneID 37210),1,5,inactive
CG14147 (GeneID 39227),1,7,inactive
Cul2 (GeneID 35420),1,16,inactive
mei-218 + mei-217,1,8,inactive
GABA-B-R1 (GeneID 34878),1,15,inactive
wun (GeneID 35966),1,4,inactive
maca (GeneID 41892),1,5,inactive
CG2113 (GeneID 38356),1,7,inactive
CG2113 (GeneID 38356),2,3,inactive
5-HT1B (GeneID 37191),1,4,inactive
5-HT1B (GeneID 37191),2,1,inactive
5-HT1B (GeneID 37191),3,2,inactive
Ntl (GeneID 34046),1,26,inactive
Ntl (GeneID 34046),2,11,inactive
pkaap (GeneID 34957),1,10,inactive
ND-19 (GeneID 37946),1,2,inactive
ND-19 (GeneID 37946),2,4,inactive
sv (GeneID 43825),1,6,inactive
sv (GeneID 43825),2,3,inactive
Rh3 (GeneID 42398),1,6,inactive
Grp170 (GeneID 31215),1,6,inactive
Grp170 (GeneID 31215),2,7,inactive
spz4 (GeneID 34572),1,2,inactive
spz4 (GeneID 34572),2,6,inactive

Look-ups from the entries so far.
For “Outcome”, zen2 (GeneID 40827) #2 shows inactive
Under “Outcome”, Arp3 (GeneID 38898) #1 is entered as inactive
cmb (GeneID 39513) #2, Outcome: inactive
For “mitotic cells, replicate 1”, DppIII (GeneID 40996) #2 has 4
Entry for CG32182 (GeneID 317898) #1 in “Outcome”: inactive
Value for CG13551 (GeneID 50133) in “mitotic cells, replicate 1”: 8
